Results deposited as PubChem BioAssay AID652243 (Drosophila RNAi Screening Center, 2013).
Test: 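Fly genes required for human androgen receptor driven transcription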 (primary screen). Cell system: Drosophila S2R+ cells. Reagent: long dsRNA against Drosophila genes. Time to read-out: 72 h (48 h, then 24 h hormone). Treatment: synthetic androgen R1881 at 10 nM for 24 h. Measured: 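Per-well raw luminescence of the androgen-driven firefly reporter and of the Renilla control, two replicates each, without normalisation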. Reading the numbers: firefly reporter light: higher = more light from androgen-responsive reporter; Renilla control light: higher = more constitutive control signal (cell number, transfection). Active means: 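Across duplicate plates, a knock-down whose log firefly/Renilla ratio shifted a set fold down or up from the GFP/LacZ control mean was a hit; the downward cut appears as both 1.5 and 3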. Calls: active = hit: reporter lowered or raised; inactive = no hit.
In all, the deposit lists about 24,000 reagents; this is a random part of those with a known target gene and a result. In the full data, 246 (1%) were called active. 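Plates not normalised; calls are printed but the firefly/Renilla ratio behind them is not deposited; fold cut for lowering reported inconsistently.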 Raw values vary from plate to plate and are shown uncorrected. The numbers tell different reagents against one gene apart. Names joined by + are all predicted targets of the reagent. Not given: the amount of reagent.

gene | reagent | firefly reporter light, replicate 1 | firefly reporter light, replicate 2 | Renilla control light, replicate 1 | Renilla control light, replicate 2 | Call
axo (axotactin) | 1 | 4.78e5 | 5.67e5 | 2.54e6 | 4.14e6 | inactive
axo (axotactin) | 2 | 1.10e5 | 94985 | 1.51e6 | 1.62e6 | inactive
axo (axotactin) | 3 | 4.40e5 | 4.48e5 | 1.93e6 | 1.81e6 | inactive
axo (axotactin) | 4 | 5.50e5 | 6.65e5 | 1.14e6 | 1.51e6 | inactive
axo (axotactin) | 5 | 3.16e5 | 5.42e5 | 1.19e6 | 1.80e6 | inactive
CG9915 | 1 | 2.98e5 | 2.50e5 | 3.35e6 | 2.98e6 | inactive
CG9915 | 2 | 5.97e5 | 6.25e5 | 2.69e6 | 2.49e6 | inactive
CG9915 | 3 | 2.45e5 | 2.11e5 | 6.69e5 | 6.78e5 | inactive
CG12362 | 1 | 2.81e5 | 1.13e5 | 3.12e6 | 1.70e6 | inactive
CG1421 | 1 | 2.03e5 | 1.40e5 | 1.46e6 | 9.05e5 | inactive
tej (tejas) | 1 | 72129 | 75516 | 1.19e6 | 1.19e6 | inactive
tej (tejas) | 2 | 1.37e6 | 1.35e6 | 1.20e6 | 1.28e6 | inactive
twin | 1 | 84274 | 1.28e5 | 7.93e5 | 7.98e5 | inactive
twin | 2 | 1.82e5 | 2.32e5 | 2.94e6 | 2.93e6 | inactive
twin | 3 | 5.77e5 | 6.21e5 | 2.69e5 | 1.82e5 | inactive
twin | 4 | 3.14e5 | 3.88e5 | 7.19e5 | 7.19e5 | inactive
tral (trailer hitch) | 1 | 69610 | 68164 | 2.14e5 | 2.51e5 | inactive
tral (trailer hitch) | 2 | 6.61e5 | 8.61e5 | 1.06e6 | 8.87e5 | inactive
Rad17 | 1 | 67498 | 84804 | 1.61e6 | 2.06e6 | active
CG34235 + CG30058 + CG34312 | 1 | 7.17e5 | 8.58e5 | 1.65e6 | 1.75e6 | inactive
CG34235 + CG30058 + CG34312 | 2 | 1.15e6 | 8.41e5 | 2.20e6 | 1.78e6 | inactive
PIG-C (Phosphatidylinositol glycan anchor biosynthesis class C) | 1 | 3.02e5 | 4.31e5 | 9.74e5 | 1.43e6 | inactive
CG11828 | 1 | 2.27e5 | 1.99e5 | 2.87e6 | 3.41e6 | inactive
CG11828 | 2 | 4.59e5 | 6.22e5 | 2.27e6 | 1.86e6 | inactive
CG11828 | 3 | 3.52e5 | 2.68e5 | 9.07e5 | 8.20e5 | inactive
CG31300 | 1 | 1.55e5 | 1.90e5 | 1.89e6 | 2.19e6 | inactive
CG31300 | 2 | 6.66e5 | 6.13e5 | 8.43e5 | 8.02e5 | inactive
CG17672 | 1 | 13508 | 17654 | 56644 | 58909 | inactive
CG17672 | 2 | 1.25e6 | 8.86e5 | 1.79e6 | 1.83e6 | inactive
Cad88C (Cadherin 88C) | 1 | 2.04e5 | 1.55e5 | 2.55e6 | 2.37e6 | inactive
Cad88C (Cadherin 88C) | 2 | 2.93e5 | 3.90e5 | 4.99e5 | 4.64e5 | inactive
CG42758 | 1 | 2.16e5 | 2.42e5 | 2.13e6 | 1.84e6 | inactive
ver (verrocchio) | 1 | 2.87e5 | 2.64e5 | 2.38e6 | 2.17e6 | inactive
ver (verrocchio) | 2 | 6.93e5 | 5.76e5 | 1.89e6 | 1.68e6 | inactive
Snx6 (Sorting nexin 6) | 1 | 1.10e6 | 1.44e6 | 2.23e6 | 2.65e6 | inactive
Snx6 (Sorting nexin 6) | 2 | 4.49e5 | 3.75e5 | 1.49e6 | 1.54e6 | inactive
CG10357 | 1 | 1.42e5 | 1.45e5 | 1.19e6 | 1.53e6 | inactive
CG13054 | 1 | 1.59e5 | 1.56e5 | 1.80e6 | 1.69e6 | inactive
CG13054 | 2 | 3.84e5 | 2.57e5 | 9.33e5 | 9.33e5 | inactive
mus81 | 1 | 2.94e5 | 2.74e5 | 4.83e6 | 3.20e6 | inactive
mus81 | 2 | 4.28e5 | 3.72e5 | 1.59e6 | 2.87e6 | inactive
Kal1 (Kallmann syndrome 1) | 1 | 43184 | 1.11e5 | 5.07e5 | 6.13e5 | inactive
Ugt301D1 (UDP-glycosyltransferase family 301 member D1) | 1 | 1.85e5 | 1.53e5 | 1.71e6 | 1.51e6 | inactive
CG17344 | 1 | 1.54e5 | 1.46e5 | 1.33e6 | 1.58e6 | inactive
stil (stand still) | 1 | 7.64e5 | 8.54e5 | 1.12e6 | 1.25e6 | inactive
CG31344 | 1 | 2.14e5 | 2.60e5 | 3.00e6 | 3.32e6 | inactive
CG31344 | 2 | 3.70e5 | 4.54e5 | 8.21e5 | 8.21e5 | inactive
Hsl (Hormone-sensitive lipase) | 1 | 1.04e6 | 4.17e5 | 1.94e6 | 8.57e5 | inactive
bcn92 | 1 | 3.72e5 | 3.85e5 | 4.03e6 | 2.63e6 | inactive
bcn92 | 2 | 7.31e5 | 6.27e5 | 1.12e6 | 1.19e6 | inactive
yata | 1 | 1.40e5 | 1.57e5 | 1.25e6 | 1.86e6 | inactive
yata | 2 | – | – | – | – | inactive
yata | 3 | – | – | – | – | inactive
CG10970 | 1 | 1.61e5 | 1.21e5 | 1.15e6 | 6.51e5 | inactive
otk (off-track) | 1 | 4.87e5 | 2.97e5 | 2.03e6 | 1.81e6 | inactive
otk (off-track) | 2 | 6.12e5 | 5.29e5 | 1.40e6 | 1.32e6 | inactive
otk (off-track) | 3 | – | – | – | – | inactive
otk (off-track) | 4 | – | – | – | – | inactive

Copied from above, 5 entries:
gene | reagent | firefly reporter light, replicate 1 | firefly reporter light, replicate 2 | Renilla control light, replicate 1 | Renilla control light, replicate 2 | Call
axo (axotactin) | 2 | 1.10e5 | 94985 | 1.51e6 | 1.62e6 | inactive
axo (axotactin) | 3 | 4.40e5 | 4.48e5 | 1.93e6 | 1.81e6 | inactive
axo (axotactin) | 4 | 5.50e5 | 6.65e5 | 1.14e6 | 1.51e6 | inactive
axo (axotactin) | 5 | 3.16e5 | 5.42e5 | 1.19e6 | 1.80e6 | inactive
CG9915 | 1 | 2.98e5 | 2.50e5 | 3.35e6 | 2.98e6 | inactive
